Results are given in words; binding and its absence hold for the method and conditions named. In cells and extracts the contact can be indirect. Here binding means that the protein was enriched with, or labelled near, the bait; the list need not be complete.
Biological target: HtrA1 (HtrA serine peptidase 1), proteolytically active, overexpressed (human) (UniProt Q92743)
Assay: affinity purification with mass spectrometry; immuno-competitive capture on immobilized anti-HTRA1 with increasing free anti-HTRA1 antibody, lysates of HtrA1 and S328A overexpressing RPE cells; eluates by SDS-PAGE, in-gel trypsin, LC-MS (Orbitrap Fusion); proteins displaced by the free antibody

By UniProt entry, the sequences of proteins in these tests, tags left out. Residues count along the entry.
UniProt Q92743, residues 23-480: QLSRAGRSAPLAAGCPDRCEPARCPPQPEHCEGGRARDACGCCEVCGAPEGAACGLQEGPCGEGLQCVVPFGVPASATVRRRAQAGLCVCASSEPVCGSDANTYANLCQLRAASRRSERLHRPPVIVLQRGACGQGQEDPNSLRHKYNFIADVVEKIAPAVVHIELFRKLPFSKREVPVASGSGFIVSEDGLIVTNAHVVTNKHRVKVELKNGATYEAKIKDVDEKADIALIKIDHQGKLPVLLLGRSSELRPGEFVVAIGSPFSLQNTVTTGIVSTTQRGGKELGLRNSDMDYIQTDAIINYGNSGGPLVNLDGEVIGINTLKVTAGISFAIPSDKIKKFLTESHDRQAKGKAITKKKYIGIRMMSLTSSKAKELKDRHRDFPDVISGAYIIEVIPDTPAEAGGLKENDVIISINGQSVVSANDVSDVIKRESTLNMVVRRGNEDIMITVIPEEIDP

binding: binds
B1: Complement C1q tumor necrosis factor-related protein 5 (protein, UniProt Q9BXJ0 16-243)
chain: SPPLDDNKIPSLCPGHPGLPGTPGHHGSQGLPGRDGRDGRDGAPGAPGEKGEGGRPGLPGPRGDPGPRGEAGPAGPTGPAGECSVPPRSAFSAKRSESRVPPPSDAPLPFDRVLVNEQGHYDAVTGKFTCQVPGVYYFAVHATVYRASLQFDLVKNGESIASFFQFFGGWPKPASLSGGAMVRLEPEDQVWVQVGVGDYIGIYASIKTDSTFSGFLVYSDWHSSPVFA
